The target in one data set is Human KCNQ2/3 channel (Homo sapiens (Human), UniProt O43525+O43526). Nature of the data set: Opening action with respect to KCNQ2/3 channel by depolarization stimulation (thallium influx, FLIPR). As to conditions: read-out: KCNQ2/3 ECrtg50; concentration giving 50% of maximum reaction of retigabine (10 μM); human KCNQ2/3 expression CHO-DHFR- cells; 5 mM potassium and 0.5 mM thallium.

The chains behind the UniProt entries cited, without tags or fusion partners.
UniProt O43525, whole entry: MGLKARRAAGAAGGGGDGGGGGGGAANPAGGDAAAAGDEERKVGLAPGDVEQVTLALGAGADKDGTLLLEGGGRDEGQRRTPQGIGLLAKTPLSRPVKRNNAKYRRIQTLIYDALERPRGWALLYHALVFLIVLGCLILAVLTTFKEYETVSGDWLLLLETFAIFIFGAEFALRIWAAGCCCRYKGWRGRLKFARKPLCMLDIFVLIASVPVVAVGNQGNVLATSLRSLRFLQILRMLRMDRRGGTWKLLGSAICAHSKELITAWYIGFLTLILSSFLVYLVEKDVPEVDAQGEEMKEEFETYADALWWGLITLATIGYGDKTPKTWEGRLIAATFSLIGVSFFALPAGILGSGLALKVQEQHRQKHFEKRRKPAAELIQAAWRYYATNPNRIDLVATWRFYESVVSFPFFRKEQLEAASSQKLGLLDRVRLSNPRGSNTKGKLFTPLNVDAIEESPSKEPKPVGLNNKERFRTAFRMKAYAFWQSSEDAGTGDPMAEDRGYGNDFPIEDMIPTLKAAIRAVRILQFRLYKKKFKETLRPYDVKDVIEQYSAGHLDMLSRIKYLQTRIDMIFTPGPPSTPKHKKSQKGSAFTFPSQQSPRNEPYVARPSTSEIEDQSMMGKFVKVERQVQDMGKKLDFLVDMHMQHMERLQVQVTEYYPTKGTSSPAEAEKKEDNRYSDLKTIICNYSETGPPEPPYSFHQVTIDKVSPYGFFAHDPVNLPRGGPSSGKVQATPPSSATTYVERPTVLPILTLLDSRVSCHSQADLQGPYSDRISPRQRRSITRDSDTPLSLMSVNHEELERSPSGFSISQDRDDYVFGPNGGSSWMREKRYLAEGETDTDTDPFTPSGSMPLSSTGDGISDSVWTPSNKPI
UniProt O43526, whole entry: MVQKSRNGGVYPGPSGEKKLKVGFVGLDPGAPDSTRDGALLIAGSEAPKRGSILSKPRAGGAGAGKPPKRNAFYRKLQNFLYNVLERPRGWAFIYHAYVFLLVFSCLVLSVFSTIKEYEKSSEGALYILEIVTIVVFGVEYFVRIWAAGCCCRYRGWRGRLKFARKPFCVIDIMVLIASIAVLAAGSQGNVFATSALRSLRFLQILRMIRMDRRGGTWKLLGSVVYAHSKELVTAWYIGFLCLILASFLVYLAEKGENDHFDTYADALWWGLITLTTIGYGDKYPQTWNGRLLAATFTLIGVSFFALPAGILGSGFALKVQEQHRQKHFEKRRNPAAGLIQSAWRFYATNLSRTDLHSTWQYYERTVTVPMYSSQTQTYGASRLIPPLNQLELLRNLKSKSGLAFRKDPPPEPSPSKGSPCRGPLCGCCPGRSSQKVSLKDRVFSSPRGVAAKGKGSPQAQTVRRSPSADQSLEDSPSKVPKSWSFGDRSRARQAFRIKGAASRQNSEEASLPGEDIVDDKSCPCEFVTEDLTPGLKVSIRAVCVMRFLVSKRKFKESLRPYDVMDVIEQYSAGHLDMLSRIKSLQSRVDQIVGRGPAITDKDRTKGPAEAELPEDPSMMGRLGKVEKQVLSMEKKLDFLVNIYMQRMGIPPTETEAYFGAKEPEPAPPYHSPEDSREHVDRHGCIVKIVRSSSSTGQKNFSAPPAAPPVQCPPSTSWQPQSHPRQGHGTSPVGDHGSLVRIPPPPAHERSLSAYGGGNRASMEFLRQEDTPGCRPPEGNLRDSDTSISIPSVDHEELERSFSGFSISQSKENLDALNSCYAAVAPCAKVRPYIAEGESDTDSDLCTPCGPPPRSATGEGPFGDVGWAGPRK
UniProt Q12809, whole entry: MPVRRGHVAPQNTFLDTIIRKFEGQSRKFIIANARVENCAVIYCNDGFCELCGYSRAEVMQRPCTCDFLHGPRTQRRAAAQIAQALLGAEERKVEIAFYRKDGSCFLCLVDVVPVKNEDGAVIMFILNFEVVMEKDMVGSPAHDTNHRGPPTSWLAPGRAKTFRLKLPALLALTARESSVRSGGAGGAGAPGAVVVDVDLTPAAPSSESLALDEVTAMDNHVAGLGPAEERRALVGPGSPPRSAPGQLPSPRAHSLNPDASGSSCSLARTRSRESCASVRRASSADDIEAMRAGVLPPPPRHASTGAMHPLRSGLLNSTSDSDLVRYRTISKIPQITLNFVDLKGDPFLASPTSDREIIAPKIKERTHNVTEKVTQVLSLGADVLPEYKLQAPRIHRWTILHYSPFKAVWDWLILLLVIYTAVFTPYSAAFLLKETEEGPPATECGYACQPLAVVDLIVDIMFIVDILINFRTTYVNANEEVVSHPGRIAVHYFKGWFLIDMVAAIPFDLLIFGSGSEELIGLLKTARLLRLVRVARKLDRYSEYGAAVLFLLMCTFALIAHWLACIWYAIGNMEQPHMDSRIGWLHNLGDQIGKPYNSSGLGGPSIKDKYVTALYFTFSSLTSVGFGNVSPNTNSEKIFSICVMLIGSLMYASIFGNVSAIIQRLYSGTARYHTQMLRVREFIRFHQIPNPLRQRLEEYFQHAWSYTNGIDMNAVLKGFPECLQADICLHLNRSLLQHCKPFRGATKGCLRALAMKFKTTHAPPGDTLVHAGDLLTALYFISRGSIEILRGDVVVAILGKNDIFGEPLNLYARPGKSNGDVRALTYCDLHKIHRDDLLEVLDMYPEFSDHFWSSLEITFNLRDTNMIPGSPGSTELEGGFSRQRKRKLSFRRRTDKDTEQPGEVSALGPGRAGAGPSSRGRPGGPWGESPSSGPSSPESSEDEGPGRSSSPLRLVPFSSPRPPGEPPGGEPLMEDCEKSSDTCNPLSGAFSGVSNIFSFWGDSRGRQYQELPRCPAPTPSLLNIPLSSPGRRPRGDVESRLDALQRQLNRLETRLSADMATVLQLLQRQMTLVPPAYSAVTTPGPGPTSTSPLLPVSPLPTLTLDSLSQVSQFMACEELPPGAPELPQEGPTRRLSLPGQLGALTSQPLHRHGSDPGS

The nature of data set [1]: Solubility test (DMSO precipitation method, Pharmacopoeia of Japan elution test second solution). As to conditions: Pharmacopoeia of Japan elution test second solution pH=6.8, room temperature, five hours; quantitation range 5 to 100 μM.
A further data set concerns the target hERG channel (Homo sapiens (Human), UniProt Q12809). Nature of the data set: Evaluation of action on hERG IKr current (patch-clamp). As to conditions: read-out: IC50 (50% inhibitory activity of hERG channel); HEK293 cell overexpressing hERG, maximum tail current, 10 minutes after application. Format: cell-based. On the technique in general: The hERG channel carries a current that helps repolarise heart muscle cells.

For data set [2], the system named is urinary bladder extracted from rat. Description: Relaxing action on urinary bladder extracted from rat (rat Magnus test). The settings on record: read-out: Rat Magnus test IC20; concentration at which tension change rate is -20%; carbachol 1 μM-induced contraction of rat urinary bladder strips.

Molecules are shown by their SMILES. In brackets after ≈: the same amount, converted by molar mass. Structures were worked out from names or drawings and are uncertain.

The Solubility is how much of the substance goes into solution per volume. Low values mean a poorly soluble substance, high ones a readily soluble substance. The term IC50 denotes the concentration that gives 50% inhibition. By IC20 is commonly meant the concentration at which the effect reaches the 20% level.

With `C[C@@](O)(c1cc(Cl)c(NC(=O)NCc2ccc(Cl)cn2)c(Cl)c1)C(F)(F)F`, the EC50 at Human KCNQ2/3 channel stood at 800 nM. This compound also gave a Solubility in data set [1] of 91 µM (≈ 40.3 µg/mL). In addition, the IC50 on hERG channel is above 10 µM. Moreover, the IC20 in data set [2] was determined as 300 nM.
